Assay results as given in US20070098649A1, “Method and composition for controlling oral pathogens” (priority 2004, published 2007).
Like-named read-outs stand apart in the source and are kept apart here. For at least one compound, name, drawing or mass did not settle the structure.

What was measured:
test bacteria = assay: MIC microdilution assay, statements on all test bacteria; type: cell-based; settings: microtiter plate assay
[1] = system: patients with heart conditions; settings: 0.02 mg/kg/min for 30 minutes, then 0.2 mg/kg/min for 30 minutes; cited from earlier work
[2] = system: chloroquine-resistant malaria; settings: in combination with pyrimethamine; cited from earlier work
[3] = system: seven periodontal pathogens; settings: berberine isolated from Coptidis rhizoma, cited from earlier work
F. nucleatum = assay: Viability assessment (bactericidal activity); type: cell-based; settings: Dox (5 μg ml^−1), berberine (250 μg ml^−1)
Experimental: Two representative organisms, S. mutans and F. nucleatum, were used in this study. […] Aliquots of 4 ml of agent, prepared in sterile water, were placed into sterile test tubes and 1 ml of adjusted cells was added. The control consisted of 4 ml of PBS and 1 ml of cells. Samples were removed at 0, 15, 30, and 60 minutes, serial dilutions were performed, and the appropriate dilutions plated out. The plates were incubated at 37° C. under appropriate atmospheric conditions for up to 72 hours. Viable colony counts were determined and compared to nontreated control Percentage kill was calculated using the formula: ([…]×100. Log reduction was also calculated on Log10 transformed data. Effect of Berberine on Cell Surface Hydrophobicity

Pseudomonas aeruginosa = assay: MIC microdilution assay; type: cell-based; settings: P. aeruginosa; growth impaired at the highest concentration (500 μg ml^−1)

SMILES: COc1ccc2cc3[n+](cc2c1OC)CCc1cc2c(cc1-3)OCO2 [Berberine, 5,6-dihydro-9,10-dimethoxybenzo[g]-1,3-benzodioxolo[5,6-a]quinolizinium]
- Inhibition of biofilm formation (test bacteria): effective at inhibiting biofilm formation of all the test species except A. actinomycetemcomitans
- Cardiac performance [1]: markedly improves cardiac performance
- Treatment result [2]: good results
- Antimicrobial activity [3]: demonstrated antimicrobial activity against seven periodontal pathogens
- Antimicrobial activity ([3]; listed as berberine): has antimicrobial activity against seven periodontal pathogens
- Reduction of the concentration required for comparable reduction in viability when used in combination (F. nucleatum): four times
- Growth on exposure to berberine (Pseudomonas aeruginosa): not completely inhibited
